Data reported in PubChem BioAssay AID2685 (National Center for Advancing Translational Sciences (NCATS), 2010).
The whole screen tested about 320,000 compounds, of which about 2,100 (0.66%) were called active. The inconclusive results got no clear call from the source; some entries with a clear call stand among them for comparison. Calls come from the whole dose curve; as a rule, active = well fitted inhibition curve with a large enough effect in the signal ratio, with a control signal flat (not every such curve was filed as active); inconclusive = small, poorly fitted or top-dose-only effect, or effect the other way, or a change in a side signal; inactive = flat fitted curve, though single readings scatter; the % refers to the signal ratio. Potencies beside an inconclusive call are fits to weak or partial responses and may not hold up.

Experiment: qHTS Assay for Lipid Storage Modulators in Drosophila S3 Cells
Conditions: BODIPY lipid droplet fluorescence, 18-24 h, cells fed with added oleic acid; lipid storage change, negative = inhibition: at 46.1 µM (top of the series) unless noted
Method in brief: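 Laser-scanning cytometry quantifies lipid droplet accumulation (500–530 nm total intensity; droplet/cell object ratio) in oleic acid-fed (400 uM added) Drosophila S3 cells treated with a concentration series. 20 uM Triacsin C defined 100% inhibition.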
% is set by controls: 0 for no effect and ±100 for the full control effect; potency is the fitted concentration of half-maximal effect.

SMILES | Potency | lipid storage change, negative = inhibition
O=C(CCCn1c(=S)[nH]c2cc3c(cc2c1=O)OCO3)N1CCN(c2ncccn2)CC1 | inconclusive: 29.1 µM [falling, single point] | 
O=C(O)C1CCN(c2ccc(S(=O)(=O)N3CCOCC3)cc2[N+](=O)[O-])CC1 |  | inconclusive: 1.42%
CN(C)C(CNC(=O)C1CC(=O)N(Cc2ccccc2)C1)c1ccccc1 (stereo not given) |  | inconclusive: 3.13%
O=C1/C(=C\c2ccco2)CCC/C1=C\c1ccco1 | active: 20.6 µM | 
O=C(Nc1cc([N+](=O)[O-])ccc1Cl)C(Sc1ccccc1)c1ccccc1 (stereo not given) | inconclusive: 1.64 µM [activator, partial curve, poor fit] | 
COc1ccc(C(=O)N2CCN=C2SC)cc1OC |  | inconclusive: 7.53%
O=C(COC(=O)c1ccccc1O)Nc1cccc(S(=O)(=O)N2CCCC2)c1 | active: 2.91 µM | 
CCCCN1CCc2c([nH]c3ccc(C)cc23)C1=O |  | inconclusive: 1.42%
COCO/C=C(\NC(C)=O)c1ccccc1 | inconclusive: 0.731 µM [activator, partial curve, poor fit] | 
CCc1nccn1S(=O)(=O)c1cc(OC)ccc1OC |  | inactive: 12.7%
Cc1ccc(NC(=O)C2CCN(C(=O)c3cccs3)CC2)cc1 |  | inconclusive: 253%
Cc1nc(C(=O)NCCC(C)C)sc1C1(C)CC(c2ccccc2)=NO1 (stereo not given) |  | inconclusive: 1.17%
O=C1/C(=C/c2ccc3c(c2)OCO3)CCC/C1=C\c1ccc2c(c1)OCO2 | inconclusive: 29.1 µM [activator, single point] | 
Cc1cc(C)c(C#N)c(SCCS(=O)(=O)Cc2ccc(Cl)cc2)n1 |  | inconclusive: 6.46%
O=C(OCC(=O)N1CCOCC1)c1ccc(O)cc1 |  | inconclusive: -146%
CC(C)NC(=O)c1nc2c(nnn2Cc2cccc(Cl)c2)c(=O)[nH]1 |  | inconclusive: 30.9%
COC(=O)CNC(=O)CNC(=O)Nc1ccccc1 |  | inactive: 7.48%
CCn1c(/C=C/Nc2ccccc2)[n+](CC)c2ccc(Cl)cc21 |  | inconclusive: -6.46%
Cc1ccc(C(=O)NCCNC(=O)CN2CCCC2)cc1 | inconclusive: 0.231 µM [falling, full curve, poor fit] | 
CCOc1ccc(CCNC(=O)c2nn(C)c3c2CS(=O)(=O)c2ccccc2-3)cc1 |  | inconclusive: -18.2%
Cc1c(C(=O)NN)sc(=S)n1C |  | inconclusive: 31.3%
CN(Cc1cccnc1)Cc1cn(Cc2ccccc2)nc1-c1ccc2c(c1)OCO2 |  | inconclusive: 17.1%
COC(=O)c1ccc(SCc2cnc(Cl)s2)cc1 |  | inconclusive: 226%
CS(=O)(=O)Nc1ccc(-c2cn3cccnc3n2)cc1 | inconclusive: 0.13 µM [activator, full curve, poor fit] | 
CC(C)(C)C(=O)NC(=S)Nc1cc(C(=O)O)ccc1Cl |  | inconclusive: -9.37%

No new results follow: 2 of the compounds above.
SMILES | Potency | lipid storage change, negative = inhibition
O=C1/C(=C/c2ccc3c(c2)OCO3)CCC/C1=C\c1ccc2c(c1)OCO2 | inconclusive: 29.1 µM [activator, single point] | 
Cc1cc(C)c(C#N)c(SCCS(=O)(=O)Cc2ccc(Cl)cc2)n1 |  | inconclusive: 6.46%

Following part:

SMILES | Potency | lipid storage change, negative = inhibition
COc1ccc(OC)c2c1sc(=NC(=O)C1CC1)n2C | inconclusive: 6.51 µM [activator, single point] | 
COc1ccccc1NC(=O)NCC1(N(C)C)CCCCC1 | inconclusive: 0.0046 µM [falling, full curve, poor fit] | 
COc1ccc2c(C)cc(SCC(=O)Nc3nsc(-c4ccc(C)cc4)n3)nc2c1 | inconclusive: 29.1 µM [falling, single point] | 
Cn1c(=O)c2c(nc(CN3CCc4ccccc4C3)n2Cc2ccccc2F)n(C)c1=O | inconclusive: 0.461 µM [activator, partial curve, poor fit] | 
O=C(Nc1ccccc1)C1CCCN1S(=O)(=O)c1ccc(Br)cc1 (stereo not given) |  | inconclusive: 34.3%
COc1ccc(/C(C)=N/OC/C(O)=C(\C#N)c2nc3ccccc3[nH]2)cc1OC |  | inconclusive: -2.56%
O=C(O)c1ccc(Nc2nc3ccccc3nc2NS(=O)(=O)c2ccc(F)cc2)cc1 | inconclusive: 0.58 µM [falling, full curve, poor fit] | 
COC(=O)c1cc(C(=O)OC)cc(-n2c(C)cc(C(=O)CC#N)c2C)c1 |  | inconclusive: 19%
C/C(=N/N1CCN(Cc2cccc3ccccc23)CC1)c1cccnc1 |  | inconclusive: 7.17%
CCOC(=O)c1c(Nc2ccc(Cl)cc2)sc(/C=C2\C=Nc3ccccc32)c1O |  | inconclusive: 169%
COc1ccc(C2=NCCNC(C(F)(F)F)=C2)cc1 |  | inconclusive: -29.6%
CN(C(=O)C1CCC1C(=O)O)c1nc(-c2ccc(Cl)s2)cs1 (stereo not given) | inconclusive: 29.1 µM [cytotoxic, single point] | 
CCOc1ccc(NC(=O)COC(=O)COc2cccc3c2OC(C)(C)C3)cc1 |  | inconclusive: -48.6% [at 0.00295 µM]
Cc1cc(NC(=O)CSc2nc(C(C)C)nc3sc(C)c(C)c23)no1 |  | inconclusive: 25.9%
O=C(CSc1nnc(-c2cnccn2)n1Cc1ccco1)c1ccc2ccccc2c1 |  | inconclusive: 7.96%
Cc1ccc(CNC(=O)C2CCC(CNc3nc(=S)[nH]c4ccccc34)CC2)cc1 (stereo not given) |  | inconclusive: -10.5%
O=C(Nc1cccc(F)c1)c1ccc(-c2ccccc2C(F)(F)F)o1 | inconclusive: 14.6 µM [rising, partial curve] | 
CCCc1cc(C(=O)Nc2cc(Br)ccc2O)no1 |  | inconclusive: -2.53%
Cc1n[nH]c(C)c1S(=O)(=O)N1CCCC(C(=O)NCc2ccccc2Cl)C1 (stereo not given) |  | inconclusive: -0.293%
CCOC(=O)c1c(NC(=O)CSc2nc3ccccc3c(=O)n2-c2ccccc2)sc(C(C)=O)c1C |  | inconclusive: 12.9%
O=C(CSC1=NCCN1)NC12CC3CC(CC(C3)C1)C2 |  | inconclusive: -18.4%
OCc1csc(=Nc2ccccc2)n1-c1ccccc1 |  | inconclusive: 3.7%
NC(=O)CC(NC(=O)c1ccccc1)c1ccc(NC2CCN(Cc3ccccc3)CC2)c([N+](=O)[O-])c1 (stereo not given) |  | inconclusive: 10.9%
Cc1ccc(-n2nc3c(c2NC(=O)c2ccc(F)c(F)c2)CS(=O)(=O)C3)cc1 | inconclusive: 20.6 µM [falling, single point] | 
CC(C)C(=O)Nc1nnc(SCC(=O)N2c3ccccc3CC2C)s1 (stereo not given) |  | inconclusive: -8.43%
